PubChem BioAssay AID504744 – Drosophila RNAi Screening Center, 2011

Purpose: 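Identify dsRNAs that increase or decrease phospho-dAkt after insulin treatment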 (primary screen)
Cell system: Drosophila Kc167 cells
Reagents: long dsRNA against Drosophila genes, 250 ng dsRNA per well of a 384-well plate
Timing: 3 days of knock-down, then overnight serum-free starvation before stimulation
Conditions: bovine insulin at 387 nM for 10 minutes after 12 h without serum
Read-out: 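In-cell antibody fluorescence for phospho-dAkt in each well over DNA-dye signal, with log2 residuals expressed as z-scores adjusted for cell count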
Active means: 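Under insulin, a gene counts as a hit if the average z-score of two replicates lies above 2.5 or below -2.5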
The screen tested about 23,000 reagents; below is a random part of those that have a named target and a result. In the full data, 98 (0.43%) are marked active. 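Only hit calls are given; the phospho-dAkt signals, z-scores and hit direction were not deposited.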 Names joined by + are all predicted targets of the reagent.

With knock-down of CG33463 [DRSC22915] the results were inactive.
Nagk [DRSC15994] gave inactive.
For CR11700 (retired record) [DRSC17794], the entry reads inactive.
Silencing of Orct2 [DRSC14613] came out at: inactive.
Silencing of Menl-2 + Menl-1 [DRSC07469] gave: inactive.
Menl-2 + Menl-1 [DRSC07470] showed inactive.
Depletion of GluProRS [DRSC14095] came out at: inactive.
HisCl1 [DRSC14945] scored inactive.
Against Cadps [DRSC21057], the entry reads inactive.
Cadps [DRSC22200] showed inactive.
Depletion of CG34001 [DRSC09042] resulted in: inactive.
After knock-down of CG9119 [DRSC08620], the screen gave inactive.
With knock-down of CG15153 [DRSC02454], the record shows inactive.
For lncRNA:sphinx [DRSC17199] the deposit lists inactive.
Depletion of CG17580 [DRSC06683] resulted in: inactive.
Ravus [DRSC15126] showed inactive.
Silencing of CG13460 [DRSC10007] came out at: inactive.
CCAP [DRSC15674] scored inactive.
Silencing of CG31848 [DRSC01309] gave: inactive.
Against FRG1 [DRSC10648], the values are inactive.
Depletion of flap [DRSC03918] gave: inactive.
flap [DRSC04087] showed inactive.
Against CG14113 [DRSC10116], the entry reads inactive.
Depletion of Brca2 [DRSC04219] resulted in: inactive.
Against Brca2 [DRSC04220] the deposit lists inactive.
CG31917 + Tfb5 [DRSC02362] showed inactive.
Knock-down of CG31917 + Tfb5 [DRSC02363] gave: inactive.
After knock-down of Loxl1 [DRSC14303] the results were inactive.
With knock-down of Mal-B2 [DRSC02417], the screen gave inactive.
With knock-down of CG6738 [DRSC16104], the screen gave inactive.
CG17190 [DRSC15184] scored inactive.
With knock-down of X11Lbeta [DRSC18156] the results were inactive.
Against X11Lbeta [DRSC18158], the values are inactive.
CG14445 [DRSC17938] showed inactive.
Depletion of slou [DRSC17058] gave: inactive.
Sting [DRSC06615] showed inactive.

In a second layout: entries from further up
{"gene knocked down":"CG34001","DRSC id":"DRSC09042","activity call":"inactive"}
{"gene knocked down":"CG9119","DRSC id":"DRSC08620","activity call":"inactive"}
{"gene knocked down":"CG15153","DRSC id":"DRSC02454","activity call":"inactive"}
{"gene knocked down":"lncRNA:sphinx","DRSC id":"DRSC17199","activity call":"inactive"}
{"gene knocked down":"CG17580","DRSC id":"DRSC06683","activity call":"inactive"}
{"gene knocked down":"Ravus","DRSC id":"DRSC15126","activity call":"inactive"}
{"gene knocked down":"CG13460","DRSC id":"DRSC10007","activity call":"inactive"}
{"gene knocked down":"CCAP","DRSC id":"DRSC15674","activity call":"inactive"}
{"gene knocked down":"CG31848","DRSC id":"DRSC01309","activity call":"inactive"}
{"gene knocked down":"FRG1","DRSC id":"DRSC10648","activity call":"inactive"}
{"gene knocked down":"flap","DRSC id":"DRSC03918","activity call":"inactive"}

More reagents:
Nrt [DRSC11237] scored inactive.
Depletion of Orct [DRSC16777] came out at: inactive.
For ara [DRSC11322], the values are inactive.
Against CG43693 [DRSC09086], the values are inactive.
After knock-down of CG43693 [DRSC10625] the results were inactive.
With knock-down of Ccp84Ag [DRSC12592], the screen gave inactive.
Depletion of Ccp84Ag [DRSC22085] resulted in: inactive.
For CG11980 [DRSC14456], the values are inactive.
After knock-down of CG12436 (retired record) [DRSC09869], the record shows inactive.
Knock-down of CG12436 (retired record) [DRSC09885] gave: inactive.
Against Setx [DRSC10859], the entry reads inactive.
Against ZC3H3 [DRSC10696], the entry reads inactive.
After knock-down of CG5188 [DRSC02826], the record shows inactive.
With knock-down of CG14315 [DRSC14794], the record shows inactive.
For CG14668 [DRSC12254] the deposit lists inactive.
Against CG13075 [DRSC09958], the values are inactive.
After knock-down of CG3119 [DRSC00569], the screen gave inactive.
Depletion of spri [DRSC17846] gave: inactive.
spri [DRSC17984] scored inactive.
Depletion of spri [DRSC17985] came out at: inactive.
After knock-down of spri [DRSC17986] the results were inactive.
spri [DRSC17988] gave inactive.
spri [DRSC17989] gave inactive.
Depletion of spri [DRSC22927] resulted in: inactive.
After knock-down of Fer1HCH [DRSC16671], the record shows inactive.
CG31810 [DRSC01560] scored inactive.
Silencing of nrm [DRSC11597] gave: inactive.
After knock-down of nrm [DRSC11599] the results were inactive.
After knock-down of nrm [DRSC11897], the screen gave inactive.
Against CG11294 [DRSC17777], the values are inactive.
Knock-down of CG7203 [DRSC03026] resulted in: inactive.
Taf12 [DRSC16879] scored inactive.
After knock-down of Tep1 [DRSC03450], the record shows inactive.
CG17618 (retired record) + CG45049 [DRSC16163] showed inactive.
After knock-down of CG17618 (retired record) + CG45049 [DRSC22054], the screen gave inactive.
With knock-down of Nep6 [DRSC19877], the screen gave inactive.
After knock-down of spz5 [DRSC08645], the record shows inactive.
